# In patent publication US10987371B2 (priority 2017, dated 2021):
# The chains behind the UniProt entries cited, without tags or fusion partners. Residues count along the entry.
# UniProt Q9GKL8, 114-333: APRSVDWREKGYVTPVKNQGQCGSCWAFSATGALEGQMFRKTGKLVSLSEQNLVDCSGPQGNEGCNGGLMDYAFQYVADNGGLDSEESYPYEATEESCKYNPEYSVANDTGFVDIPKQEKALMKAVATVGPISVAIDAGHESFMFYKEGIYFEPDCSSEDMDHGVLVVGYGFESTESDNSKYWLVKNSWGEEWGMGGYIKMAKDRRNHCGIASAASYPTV
# At least one structure is not confirmed: it was looked up by name or label, or the drawing left a doubt.
# Experiments:
# SUDV-Boniface = assay type: cell-based
# EBOV-Makona = assay type: cell-based
# Cathepsin L = Cathepsin L (Chlorocebus aethiops, UniProt Q9GKL8); assay type: cell-based
# Ebola = details: mouse, in vivo; cited from earlier work
Compound,inhibition of replication of SUDV-Boniface (SUDV-Boniface),inhibition of replication of wildtype EBOV-Makona (EBOV-Makona),effect on cathepsin L activity (Cathepsin L),protection of mice (Ebola) [%]
"O=c1c(O[C@@H]2O[C@H](CO)[C@@H](O)[C@H](O)[C@H]2O)c(-c2ccc(O)c(O)c2)oc2cc(O)cc(O)c12 [Q3G, Quercetin-3-β-O-D-glucoside]",inhibited replication,inhibited replication,did not find any effect,
COc1ccc2cc1Oc1ccc(cc1)C[C@H]1c3cc(c(OC)cc3CCN1C)Oc1c(OC)c(OC)cc3c1[C@H](C2)N(C)CC3 [tetrandrine],,,,80
